Record: PubChem BioAssay AID1259275 (Sanger Institute, 2017)
In all, the deposit lists 794 reagents; this is a random part of them. In the full data, 13 (1.6%) are marked active. 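Calls mark knock-downs lethal by themselves, not drug synergy; drugs went in a day after transfection, with DMSO as vehicle.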 Unmarked entries are inactive. Not all columns of the deposit are shown. Reagent sequences are not shown. The record does not give: the amount of reagent, the time to read-out.

Assay: 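Kinase and colorectal cancer genes needed for cancer cell survival, with or without drugs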 (primary screen)
Cell system: COLO320HSR human colorectal cancer cells
Knock-down reagent: siRNA pool against human genes
Conditions: anchor drug added one day after transfection: BYL719 at 1 µM, cetuximab at 5 µg/ml or trametinib at 10 nM; DMSO as vehicle arm
Measurement: 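Replicate-mean viability versus non-targeting pool control, robust z-score without drug, and per-drug synergy scores for BYL719 at 1 µM, cetuximab at 5 µg/ml and trametinib at 10 nM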
Reading the numbers: robust z-score, siRNA alone: higher = more viable cells; strongly negative means essential
Active means: 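a gene is called essential when its robust z-score without drug falls below -3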
Calls: active = essential (siRNA alone); inactive = no change (siRNA alone)

gene | robust z-score, siRNA alone
MAP2K2 (mitogen-activated protein kinase kinase 2) | 0.726
NUP107 (nucleoporin 107) | -6.39 (active)
PIK3CD | 0.396
MAPK15 (mitogen-activated protein kinase 15) | -0.159
GRK5 (G protein-coupled receptor kinase 5) | 0.726
PFKL (phosphofructokinase, liver type) | 0.726
RPS6KB2 (ribosomal protein S6 kinase B2) | 0.726
MAGI2 | 0.726
NME2 (NME/NM23 nucleoside diphosphate kinase 2) | 0.726
DCLK2 (doublecortin like kinase 2) | -0.843
PRKAR2B | 0.726
TRPM6 | 0.726
PRKCB (protein kinase C beta) | -0.942
NAGK (N-acetylglucosamine kinase) | -0.894
ABL1 (ABL proto-oncogene 1, non-receptor tyrosine kinase) | -0.318
ZAP70 (zeta chain of T cell receptor associated protein kinase 70) | 0.726
TGFBR1 (transforming growth factor beta receptor 1) | 0.726
OXSR1 (oxidative stress responsive kinase 1) | 0.154
VRK2 (VRK serine/threonine kinase 2) | -1.01
ITPK1 (inositol-tetrakisphosphate 1-kinase) | 0.726
